The assay deals with glutathione peroxidase-like GPXL2 fused to eYFP (Arabidopsis thaliana) (UniProt O04922). In words: FRET or BRET; FRET between mTurquoise2 (donor) and eYFP (acceptor) by sensitized emission in transfected A. thaliana leaf protoplasts; cells untreated, reduced with 1 mM DTT for 30 min, or first reduced and then oxidized with 5 mM H2O2 for 30 min. On the technique in general: BRET reads energy transfer from a luciferase to a nearby fluorophore.

Protein sequences, listed by entry. Tags and fused reporters are not part of them. Lines headed by an entry give the natural chain unless they say otherwise; changes in a name come on top.
UniProt O04922: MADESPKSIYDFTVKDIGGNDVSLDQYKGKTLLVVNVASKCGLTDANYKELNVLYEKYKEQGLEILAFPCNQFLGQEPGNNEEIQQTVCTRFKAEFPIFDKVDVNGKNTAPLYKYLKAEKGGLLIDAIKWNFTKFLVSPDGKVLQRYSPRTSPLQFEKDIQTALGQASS

No constants are given. Whether binding was seen depends on the method and setting. In cells and extracts the contact can be indirect. Binding can be weak; no strength is given. Sequences can lack the tags named with a protein.

B1: cytosolic malate dehydrogenase 1 (MDH1) fused to a fluorescent protein (enzyme, UniProt P93819 1-332)
chain: MAKEPVRVLVTGAAGQIGYALVPMIARGIMLGADQPVILHMLDIPPAAEALNGVKMELIDAAFPLLKGVVATTDAVEGCTGVNVAVMVGGFPRKEGMERKDVMSKNVSIYKSQAAALEKHAAPNCKVLVVANPANTNALILKEFAPSIPEKNISCLTRLDHNRALGQISERLSVPVSDVKNVIIWGNHSSSQYPDVNHAKVQTSSGEKPVRELVKDDAWLDGEFISTVQQRGAAIIKARKLSSALSAASSACDHIRDWVLGTPEGTFVSMGVYSDGSYSVPSGLIYSFPVTCRNGDWSIVQGLPIDEVSRKKMDLTAEELKEEKDLAYSCLS
For the molecule B1, the binding result is “binds”.

The values are drawn from publication PMC11022108.
